We go through 1 substance from article PMC13365592.

Results are given in words; binding and its absence hold for the method and conditions named. In cells and extracts the contact can be indirect. Binding can be weak; no strength is given.

The assay deals with T1, MEL_369 (melbournevirus).
T1 sequence: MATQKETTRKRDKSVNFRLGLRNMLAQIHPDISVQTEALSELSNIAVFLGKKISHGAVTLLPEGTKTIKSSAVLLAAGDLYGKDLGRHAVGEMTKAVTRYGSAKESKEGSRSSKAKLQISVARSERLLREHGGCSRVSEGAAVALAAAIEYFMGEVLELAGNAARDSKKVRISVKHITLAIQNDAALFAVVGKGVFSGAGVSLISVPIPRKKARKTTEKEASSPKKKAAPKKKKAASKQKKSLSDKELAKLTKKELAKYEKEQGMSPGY
As to the kind of experiment: cross-linking; intact melbournevirus particles in PBS cross-linked with 5 mM DSSO, 30 min, room temperature, quenched with Tris; then sucrose gradient, digestion, LC-MS; 1% FDR at residue-pair level; PPIs kept only if seen in all three biological replicates.

On to MEL_206 (melbournevirus), for which the binding entry is “binds”.
